Measured values reported in paper PMC8675926.
These are yes or no findings as the source states them, for the method shown. Binding seen in cells or lysates may run through a third protein. Some binding calls cover weakened binding; strength is not graded here. Sequences can lack the tags named with a protein. Values belong to the molecule of their own block, whether it stands above or below them.

The chains behind the UniProt entries cited, without tags or fusion partners. Where a name states a change or a piece, a line headed by the entry shows the natural chain unless it says otherwise.
UniProt Q12692: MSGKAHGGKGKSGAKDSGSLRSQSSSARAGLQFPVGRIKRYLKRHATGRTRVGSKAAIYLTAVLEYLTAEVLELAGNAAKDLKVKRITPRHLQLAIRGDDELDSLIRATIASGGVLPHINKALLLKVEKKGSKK

Columns and labels:
[1] = biological target: T1, Chz1, VSV-tagged (histone chaperone) (S. cerevisiae) (UniProt P40019); experiment: co-IP; reciprocal: VSV-tagged Chz1 precipitated from yeast lysates with VSV agarose beads for 16 hours in TAP-IP buffer; blot with anti-FLAG; in triplicate
T1 sequence: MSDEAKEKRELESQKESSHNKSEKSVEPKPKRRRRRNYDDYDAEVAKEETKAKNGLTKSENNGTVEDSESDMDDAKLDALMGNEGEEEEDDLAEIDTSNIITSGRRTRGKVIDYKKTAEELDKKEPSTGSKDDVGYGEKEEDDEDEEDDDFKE

[2] = biological target: H2A.Z (HTZ1), C-terminally 3xFLAG tagged (S. cerevisiae), Q12692; experiment: co-IP; FLAG-tagged histone constructs precipitated from yeast lysates with FLAG M2 agarose beads for 1.5 hours in TAP-IP buffer (50 mM Tris pH 7.8, 150 mM NaCl, 0.15% NP-40); blots with anti-VSV, anti-Nap1, anti-FLAG; in triplicate; conditions: remark: other sources report otherwise
[3] = biological target: H2A.Z (HTZ1), C-terminally 3xFLAG tagged (S. cerevisiae) (UniProt Q12692); experiment: as above

binding [1]: binds
Molecule: H2A.Z (HTZ1), C-terminally 3xFLAG tagged (from UniProt Q12692 1-134) (other; other documents disagree on this pair)

B1: Chz1, VSV-tagged (histone chaperone), P40019 1-153 (protein)
chain: MSDEAKEKRELESQKESSHNKSEKSVEPKPKRRRRRNYDDYDAEVAKEETKAKNGLTKSENNGTVEDSESDMDDAKLDALMGNEGEEEEDDLAEIDTSNIITSGRRTRGKVIDYKKTAEELDKKEPSTGSKDDVGYGEKEEDDEDEEDDDFKE
binding [2]: binds

B2: Nap1 (histone chaperone) (protein, UniProt P25293 1-417)
chain: MSDPIRTKPKSSMQIDNAPTPHNTPASVLNPSYLKNGNPVRAQAQEQDDKIGTINEEDILANQPLLLQSIQDRLGSLVGQDSGYVGGLPKNVKEKLLSLKTLQSELFEVEKEFQVEMFELENKFLQKYKPIWEQRSRIISGQEQPKPEQIAKGQEIVESLNETELLVDEEEKAQNDSEEEQVKGIPSFWLTALENLPIVCDTITDRDAEVLEYLQDIGLEYLTDGRPGFKLLFRFDSSANPFFTNDILCKTYFYQKELGYSGDFIYDHAEGCEISWKDNAHNVTVDLEMRKQRNKTTKQVRTIEKITPIESFFNFFDPPKIQNEDQDEELEEDLEERLALDYSIGEQLKDKLIPRAVDWFTGAALEFEFEEDEEEADEDEDEEEDDDHGLEDDDGESAEEQDDFAGRPEQAPECKQS
binding [3]: binds
